This is an account of results in the supplement of paper PMC12819154, “High-throughput peptide-centric local stability assay extends protein–ligand identification to membrane proteins, tissues and bacteria” (Nature Structural & Molecular Biology, 2025).

Chains of the proteins cited; added tags and fusions are not shown. Lines headed by an entry give the natural chain unless they say otherwise; changes in a name come on top.
UniProt Q9UJT0: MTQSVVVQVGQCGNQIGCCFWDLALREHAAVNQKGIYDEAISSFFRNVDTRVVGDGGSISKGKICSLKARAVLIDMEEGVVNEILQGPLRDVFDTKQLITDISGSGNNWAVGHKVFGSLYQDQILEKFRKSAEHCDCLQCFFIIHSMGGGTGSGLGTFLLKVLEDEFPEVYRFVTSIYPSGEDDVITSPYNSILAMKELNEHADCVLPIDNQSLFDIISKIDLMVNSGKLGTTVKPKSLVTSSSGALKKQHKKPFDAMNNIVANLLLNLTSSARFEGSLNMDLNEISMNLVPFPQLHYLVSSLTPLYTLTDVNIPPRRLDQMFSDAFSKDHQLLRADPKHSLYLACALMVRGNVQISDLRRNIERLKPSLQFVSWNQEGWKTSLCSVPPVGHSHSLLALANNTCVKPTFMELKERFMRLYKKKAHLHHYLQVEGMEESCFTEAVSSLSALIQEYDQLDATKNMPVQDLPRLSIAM
UniProt Q9UKI8: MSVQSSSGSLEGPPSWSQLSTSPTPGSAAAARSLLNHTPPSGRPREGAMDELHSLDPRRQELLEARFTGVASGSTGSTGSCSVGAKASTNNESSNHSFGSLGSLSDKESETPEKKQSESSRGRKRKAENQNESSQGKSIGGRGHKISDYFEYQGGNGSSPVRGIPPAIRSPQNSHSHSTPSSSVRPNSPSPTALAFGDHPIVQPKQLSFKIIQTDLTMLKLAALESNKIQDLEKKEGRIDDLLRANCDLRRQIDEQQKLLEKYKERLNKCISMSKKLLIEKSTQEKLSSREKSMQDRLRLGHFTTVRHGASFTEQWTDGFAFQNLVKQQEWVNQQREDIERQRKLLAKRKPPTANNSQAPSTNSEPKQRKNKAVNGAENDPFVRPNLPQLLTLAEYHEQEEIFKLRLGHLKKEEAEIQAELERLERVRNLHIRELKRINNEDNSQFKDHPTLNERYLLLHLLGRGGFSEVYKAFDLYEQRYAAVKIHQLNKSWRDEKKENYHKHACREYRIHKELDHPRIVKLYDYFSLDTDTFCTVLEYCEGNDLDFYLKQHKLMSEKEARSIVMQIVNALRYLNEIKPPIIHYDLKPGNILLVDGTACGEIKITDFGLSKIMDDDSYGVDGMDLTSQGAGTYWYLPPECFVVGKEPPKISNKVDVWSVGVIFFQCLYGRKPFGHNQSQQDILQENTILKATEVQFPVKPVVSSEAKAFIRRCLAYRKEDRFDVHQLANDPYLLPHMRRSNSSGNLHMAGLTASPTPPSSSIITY
UniProt Q9UII5: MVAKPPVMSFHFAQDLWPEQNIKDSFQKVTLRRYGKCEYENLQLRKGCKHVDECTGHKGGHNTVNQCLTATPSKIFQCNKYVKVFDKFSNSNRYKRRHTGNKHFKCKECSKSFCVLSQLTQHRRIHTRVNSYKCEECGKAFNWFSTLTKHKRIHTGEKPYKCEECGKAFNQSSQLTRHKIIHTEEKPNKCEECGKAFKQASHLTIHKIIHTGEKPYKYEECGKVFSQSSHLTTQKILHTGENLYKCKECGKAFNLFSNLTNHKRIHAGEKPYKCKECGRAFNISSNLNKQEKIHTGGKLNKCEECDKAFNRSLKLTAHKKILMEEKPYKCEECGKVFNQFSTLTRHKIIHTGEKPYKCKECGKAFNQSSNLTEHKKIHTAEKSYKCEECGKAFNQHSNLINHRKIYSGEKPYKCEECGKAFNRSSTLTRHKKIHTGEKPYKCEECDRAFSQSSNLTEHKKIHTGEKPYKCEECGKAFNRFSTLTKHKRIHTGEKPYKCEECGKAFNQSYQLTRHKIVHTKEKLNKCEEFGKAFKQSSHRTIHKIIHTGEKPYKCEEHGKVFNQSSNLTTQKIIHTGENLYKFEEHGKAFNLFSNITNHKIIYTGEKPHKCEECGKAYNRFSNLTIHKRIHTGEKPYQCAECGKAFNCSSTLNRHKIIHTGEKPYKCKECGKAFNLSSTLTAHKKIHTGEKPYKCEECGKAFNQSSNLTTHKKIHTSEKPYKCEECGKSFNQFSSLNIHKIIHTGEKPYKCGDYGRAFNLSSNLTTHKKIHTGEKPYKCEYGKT
UniProt Q9UKT4: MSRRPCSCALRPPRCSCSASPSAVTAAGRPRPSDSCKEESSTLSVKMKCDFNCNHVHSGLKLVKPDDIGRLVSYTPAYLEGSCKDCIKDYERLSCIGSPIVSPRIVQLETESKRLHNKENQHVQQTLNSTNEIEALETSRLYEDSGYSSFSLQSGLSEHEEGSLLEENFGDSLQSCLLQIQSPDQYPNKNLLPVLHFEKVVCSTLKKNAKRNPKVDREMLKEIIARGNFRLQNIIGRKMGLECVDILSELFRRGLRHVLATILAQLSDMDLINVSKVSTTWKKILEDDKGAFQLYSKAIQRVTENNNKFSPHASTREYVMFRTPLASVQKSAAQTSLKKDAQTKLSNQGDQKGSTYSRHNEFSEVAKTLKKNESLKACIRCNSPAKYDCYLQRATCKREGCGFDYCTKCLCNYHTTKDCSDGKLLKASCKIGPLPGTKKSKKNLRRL
UniProt Q9UPU9: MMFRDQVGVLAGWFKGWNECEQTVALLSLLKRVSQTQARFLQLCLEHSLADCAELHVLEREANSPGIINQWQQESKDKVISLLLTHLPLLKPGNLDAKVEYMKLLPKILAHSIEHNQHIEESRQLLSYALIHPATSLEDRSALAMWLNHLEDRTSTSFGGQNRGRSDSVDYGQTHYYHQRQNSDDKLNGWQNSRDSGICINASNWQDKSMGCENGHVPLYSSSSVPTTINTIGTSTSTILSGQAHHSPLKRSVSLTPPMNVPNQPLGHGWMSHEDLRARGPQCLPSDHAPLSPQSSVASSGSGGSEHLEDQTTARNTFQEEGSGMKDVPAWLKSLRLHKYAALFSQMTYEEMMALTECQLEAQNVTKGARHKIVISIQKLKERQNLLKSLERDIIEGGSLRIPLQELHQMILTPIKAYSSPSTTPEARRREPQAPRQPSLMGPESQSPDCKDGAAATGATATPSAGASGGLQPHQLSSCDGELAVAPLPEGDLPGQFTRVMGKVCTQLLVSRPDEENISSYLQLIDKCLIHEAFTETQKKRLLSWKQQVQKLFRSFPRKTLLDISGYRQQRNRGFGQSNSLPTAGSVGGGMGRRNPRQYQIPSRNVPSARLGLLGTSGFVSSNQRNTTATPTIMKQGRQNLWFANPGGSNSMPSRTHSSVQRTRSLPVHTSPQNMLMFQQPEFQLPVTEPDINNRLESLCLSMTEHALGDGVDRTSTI
UniProt Q9UL26: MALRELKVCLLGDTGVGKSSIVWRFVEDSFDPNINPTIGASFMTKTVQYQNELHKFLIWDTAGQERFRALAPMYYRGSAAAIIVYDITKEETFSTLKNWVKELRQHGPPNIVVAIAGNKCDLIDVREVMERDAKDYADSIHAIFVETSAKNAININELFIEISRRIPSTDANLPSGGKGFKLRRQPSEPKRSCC
UniProt Q9UJZ1: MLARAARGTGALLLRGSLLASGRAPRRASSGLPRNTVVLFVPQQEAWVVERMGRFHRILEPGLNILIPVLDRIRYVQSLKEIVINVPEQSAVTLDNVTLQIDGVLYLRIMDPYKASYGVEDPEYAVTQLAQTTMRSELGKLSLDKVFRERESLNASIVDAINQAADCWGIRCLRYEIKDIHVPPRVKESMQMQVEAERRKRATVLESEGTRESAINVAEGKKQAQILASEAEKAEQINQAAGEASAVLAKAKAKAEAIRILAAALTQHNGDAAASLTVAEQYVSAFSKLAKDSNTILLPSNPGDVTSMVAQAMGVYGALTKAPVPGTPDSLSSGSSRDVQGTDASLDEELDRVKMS
UniProt Q9UJX6, whole entry: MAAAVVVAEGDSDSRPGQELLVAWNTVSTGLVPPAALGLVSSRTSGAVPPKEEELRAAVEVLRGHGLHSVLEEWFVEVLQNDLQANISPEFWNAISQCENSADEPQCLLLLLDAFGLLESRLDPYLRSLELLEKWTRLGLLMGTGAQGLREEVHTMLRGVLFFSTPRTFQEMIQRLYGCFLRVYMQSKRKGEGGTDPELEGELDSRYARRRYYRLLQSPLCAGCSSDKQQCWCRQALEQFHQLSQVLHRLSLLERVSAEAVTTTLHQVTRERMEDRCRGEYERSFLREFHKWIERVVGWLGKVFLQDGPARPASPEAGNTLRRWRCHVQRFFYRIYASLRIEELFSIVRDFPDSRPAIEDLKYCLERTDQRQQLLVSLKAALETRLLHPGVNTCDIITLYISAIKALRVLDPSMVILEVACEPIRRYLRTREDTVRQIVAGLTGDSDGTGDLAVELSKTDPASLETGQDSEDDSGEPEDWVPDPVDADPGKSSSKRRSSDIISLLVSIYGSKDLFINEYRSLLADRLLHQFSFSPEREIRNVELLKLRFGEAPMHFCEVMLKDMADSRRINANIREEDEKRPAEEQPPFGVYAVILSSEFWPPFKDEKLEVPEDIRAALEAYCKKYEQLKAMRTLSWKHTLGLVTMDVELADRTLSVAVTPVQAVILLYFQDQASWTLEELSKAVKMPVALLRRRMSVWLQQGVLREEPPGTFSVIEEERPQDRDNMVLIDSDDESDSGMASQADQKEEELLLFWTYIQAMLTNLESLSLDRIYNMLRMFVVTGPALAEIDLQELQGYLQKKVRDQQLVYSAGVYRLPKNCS
UniProt Q9ULM3: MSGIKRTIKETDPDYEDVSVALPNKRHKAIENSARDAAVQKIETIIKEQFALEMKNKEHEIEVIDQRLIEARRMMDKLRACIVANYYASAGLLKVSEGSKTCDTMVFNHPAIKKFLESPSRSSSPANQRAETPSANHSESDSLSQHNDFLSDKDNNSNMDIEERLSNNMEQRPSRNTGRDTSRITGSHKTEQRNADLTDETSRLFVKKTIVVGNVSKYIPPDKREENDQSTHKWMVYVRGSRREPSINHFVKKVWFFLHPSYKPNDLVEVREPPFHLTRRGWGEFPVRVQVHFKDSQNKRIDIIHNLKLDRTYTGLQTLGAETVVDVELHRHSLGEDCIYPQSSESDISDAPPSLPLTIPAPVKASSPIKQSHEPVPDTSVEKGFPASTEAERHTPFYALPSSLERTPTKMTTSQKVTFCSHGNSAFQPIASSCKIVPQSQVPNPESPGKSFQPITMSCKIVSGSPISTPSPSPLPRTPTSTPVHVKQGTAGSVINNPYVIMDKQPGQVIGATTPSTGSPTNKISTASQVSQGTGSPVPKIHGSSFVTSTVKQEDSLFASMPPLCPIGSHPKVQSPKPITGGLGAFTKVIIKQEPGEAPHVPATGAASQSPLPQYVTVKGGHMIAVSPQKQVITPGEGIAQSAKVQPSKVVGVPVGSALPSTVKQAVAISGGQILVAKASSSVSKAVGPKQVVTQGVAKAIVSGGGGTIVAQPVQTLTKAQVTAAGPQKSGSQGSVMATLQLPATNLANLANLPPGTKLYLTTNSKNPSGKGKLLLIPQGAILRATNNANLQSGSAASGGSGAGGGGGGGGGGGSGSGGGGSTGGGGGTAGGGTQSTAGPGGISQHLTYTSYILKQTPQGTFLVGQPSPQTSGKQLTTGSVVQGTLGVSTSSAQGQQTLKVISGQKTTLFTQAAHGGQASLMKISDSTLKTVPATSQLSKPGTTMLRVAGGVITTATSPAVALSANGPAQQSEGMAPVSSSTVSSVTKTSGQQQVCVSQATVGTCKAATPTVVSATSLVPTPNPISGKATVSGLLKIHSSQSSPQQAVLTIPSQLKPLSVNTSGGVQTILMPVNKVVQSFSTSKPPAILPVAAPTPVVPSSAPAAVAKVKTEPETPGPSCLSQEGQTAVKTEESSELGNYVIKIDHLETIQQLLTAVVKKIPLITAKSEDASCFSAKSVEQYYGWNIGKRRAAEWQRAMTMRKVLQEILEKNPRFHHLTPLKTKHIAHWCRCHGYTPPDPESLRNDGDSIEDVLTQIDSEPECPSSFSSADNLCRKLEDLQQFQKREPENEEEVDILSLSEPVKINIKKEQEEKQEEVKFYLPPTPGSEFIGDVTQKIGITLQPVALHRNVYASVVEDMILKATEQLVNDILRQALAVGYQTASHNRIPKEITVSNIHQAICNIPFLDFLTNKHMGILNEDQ
UniProt Q9Y248: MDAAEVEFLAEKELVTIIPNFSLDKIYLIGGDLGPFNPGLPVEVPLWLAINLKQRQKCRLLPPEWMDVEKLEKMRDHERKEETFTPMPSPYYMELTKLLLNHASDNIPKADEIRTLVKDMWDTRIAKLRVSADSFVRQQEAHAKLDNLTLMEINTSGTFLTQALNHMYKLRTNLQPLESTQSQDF

The list shows a part of the results. Most values lie at the level of the controls, where differences are scatter.

Compound in the assay: Cc1nc(Nc2ncc(C(=O)Nc3c(C)cccc3Cl)s2)cc(N2CCN(CCO)CC2)n1 [dasatinib]
In words: log2 fold change of tryptic peptide abundance, ligand vs vehicle (limited proteolysis) (log2 ratio); higher = more trypsin-susceptible (destabilized). The conditions noted are these: ligand concentration: 5 uM; sample: K562 cleared lysate.
Turning to “INTS6 (peptide sequence: VVQETGIK, peptide start residue: 478) (UniProt Q9UL03)”, the log2 fold change stood at 0.355.

As for “TUBE1 (peptide sequence: SLVTSSSGALK, peptide start residue: 238) (UniProt Q9UJT0)”, the log2 fold change is -0.138.

“PPM1H (peptide sequence: RLPWATGYAEVINAGK, peptide start residue: 73) (UniProt Q9ULR3)”: the log2 fold change is -0.557.

Turning to “TLK1 (peptide sequence: ATEVQFPVKPVVSSEAK, peptide start residue: 692) (UniProt Q9UKI8)”, the log2 fold change worked out at 0.153.

In the case of “UniProt Q9UII5 (peptide sequence: AFNLSSNLTTHKK, peptide start residue: 756)”, the log2 fold change is 0.204.

As to “UniProt Q9UI30 (peptide sequence: MKLLTHNLLSSHVR, peptide start residue: 1)”, the log2 fold change was determined as 0.246.

On to “FBXO5 (peptide sequence: ASCKIGPLPGTKK, peptide start residue: 427) (UniProt Q9UKT4)”, for which the log2 fold change was -0.517.

Turning to “UniProt Q9ULJ3 (peptide sequence: DSSVVYAK, peptide start residue: 211)”, the log2 fold change was found to be 0.219.

As to “GMEB2 (peptide sequence: VQDPPLQLR, peptide start residue: 268) (UniProt Q9UKD1)”, the log2 fold change was -0.204.

On to “SAMD4A (peptide sequence: TSTSFGGQNR, peptide start residue: 154) (UniProt Q9UPU9)”, for which the log2 fold change was 0.37.

Regarding “G3BP2 (peptide sequence: NDRGPGGPR, peptide start residue: 430) (UniProt Q9UN86)”, the log2 fold change was -0.436.

Take “RAB22A (peptide sequence: VCLLGDTGVGK, peptide start residue: 8) (UniProt Q9UL26)”: the log2 fold change was -0.676.

Consider “STOML2 (peptide sequence: ESMQMQVEAERR, peptide start residue: 188) (UniProt Q9UJZ1)”, for which the log2 fold change was -0.366.

“MKRN1 (peptide sequence: SCIEAHEK, peptide start residue: 258) (UniProt Q9UHC7)”: the log2 fold change was -0.312.

For the target “MTMR6 (peptide sequence: YMYVMDTRPK, peptide start residue: 233) (UniProt Q9Y217)”, the log2 fold change amounted to 0.498.

As for “ANAPC2 (peptide sequence: DQQLVYSAGVYRLPK, peptide start residue: 805) (UniProt Q9UJX6)”, the log2 fold change was 0.309.

Regarding “YEATS2 (peptide sequence: LSNNMEQRPSR, peptide start residue: 165) (UniProt Q9ULM3)”, the log2 fold change was -0.2.

As for “GINS2 (peptide sequence: LLLNHASDNIPKADEIR, peptide start residue: 98) (UniProt Q9Y248)”, the log2 fold change worked out at 0.109.
